# Measured values published in patent publication US20090221582A1, “Piperazine Derivatives And Their Use In Therapy” (Vernalis (R&D), priority 2005, published 2009).
# Chains of the proteins cited; added tags and fusions are not shown.
# UniProt P21554, whole entry: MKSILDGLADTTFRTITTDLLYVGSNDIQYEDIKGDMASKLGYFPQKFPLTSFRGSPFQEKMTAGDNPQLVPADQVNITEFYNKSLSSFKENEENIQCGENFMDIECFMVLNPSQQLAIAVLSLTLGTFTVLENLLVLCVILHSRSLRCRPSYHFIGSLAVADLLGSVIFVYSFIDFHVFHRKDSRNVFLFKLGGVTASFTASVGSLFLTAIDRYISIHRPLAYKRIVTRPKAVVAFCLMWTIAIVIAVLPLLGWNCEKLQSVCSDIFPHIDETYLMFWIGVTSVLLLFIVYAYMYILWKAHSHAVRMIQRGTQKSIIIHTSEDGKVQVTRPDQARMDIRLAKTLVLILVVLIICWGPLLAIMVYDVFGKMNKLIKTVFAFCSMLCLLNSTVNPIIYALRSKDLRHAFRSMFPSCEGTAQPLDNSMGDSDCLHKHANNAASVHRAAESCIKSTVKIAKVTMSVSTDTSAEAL
# UniProt P34972, whole entry: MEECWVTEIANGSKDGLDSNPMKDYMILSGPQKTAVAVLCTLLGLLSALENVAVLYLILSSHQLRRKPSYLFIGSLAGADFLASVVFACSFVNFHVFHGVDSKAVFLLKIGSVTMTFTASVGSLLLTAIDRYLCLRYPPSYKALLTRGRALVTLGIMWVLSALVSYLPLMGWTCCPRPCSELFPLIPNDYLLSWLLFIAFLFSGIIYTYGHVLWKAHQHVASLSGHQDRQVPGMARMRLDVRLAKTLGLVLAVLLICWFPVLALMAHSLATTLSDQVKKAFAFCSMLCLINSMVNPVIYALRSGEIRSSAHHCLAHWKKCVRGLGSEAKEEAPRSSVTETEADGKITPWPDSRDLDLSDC
# At least one structure is not confirmed: it was looked up by name or label, or the drawing left a doubt.
# Legend:
# [1] = molecular target: T1, human cannabinoid CB1 receptor (Homo sapiens, UniProt P21554); experiment: In vitro functional test: CB1 receptor mediated [35S]GTPγS binding, membranes of cells expressing human recombinant CB1 receptor; type: biochemical
# T1 construct: purchased Perkin Elmer RBHCB1
# [2] = molecular target: human CB2 receptors (Homo sapiens, UniProt P34972); experiment: Affinity at human CB2 receptors; type: binding
compound,measurement,setting,value
"CC(C)(C)C(=O)N1CCN(c2ccc(Cl)cc2F)[C@H](c2ccc(-c3cc(Cl)nc(N)n3)cc2)C1 [Example 1, 1-{4-(4-Chloro-2-fluoro-phenyl)-3-R-[4-(2-amino-4-chloro-pyrimidin-6-yl)-phenyl]-piperazin-1-yl}-2,2-dimethyl-propan-1-one]",affinity for the human cannabinoid CB1 receptor,[1],12 nM
same,affinity at human CB2 receptors,[2],2.87 µM
